Source: US7776853B2, “2-amino-benzoxazinone derivatives for the treatment of obesity” (Norgine B.V., priority 1999, dated 2010)
For some assays here: At least one compound was matched to its structure with a doubt left. Some results were stated once for a whole list of compounds, not compound by compound.

Experiments:
[1] = biological target: T1, porcine pancreatic lipase (Sus scrofa, UniProt P00591); assay: Lipase enzyme activity, NaOH titration method (lipid micelles); format: biochemical; details: NaOH titration assay; system containing lipid micelles
T1 sequence (P00591 1-450): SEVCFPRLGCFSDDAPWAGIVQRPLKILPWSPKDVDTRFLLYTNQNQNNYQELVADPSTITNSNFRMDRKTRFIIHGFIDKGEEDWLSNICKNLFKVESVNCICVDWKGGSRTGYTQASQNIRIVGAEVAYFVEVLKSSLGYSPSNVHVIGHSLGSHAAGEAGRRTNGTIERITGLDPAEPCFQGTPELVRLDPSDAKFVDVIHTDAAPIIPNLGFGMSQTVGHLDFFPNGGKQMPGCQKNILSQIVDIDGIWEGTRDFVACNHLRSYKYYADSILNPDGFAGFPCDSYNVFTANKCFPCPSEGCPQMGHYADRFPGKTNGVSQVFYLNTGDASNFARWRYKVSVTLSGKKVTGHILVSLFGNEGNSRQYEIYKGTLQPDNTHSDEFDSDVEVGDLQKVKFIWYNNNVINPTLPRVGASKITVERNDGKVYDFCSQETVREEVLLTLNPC

human pancreatic lipase = biological target: T2, human pancreatic lipase (Homo sapiens, UniProt P16233); assay: Lipase activity, quinine diimine dye colorimetric assay (Sigma Lipase PS); format: biochemical; details: compounds dissolved in DMSO, read-out: IC50 (concentration at which lipase activity is inhibited to one half of the maximum)
T2 sequence (P16233 17-465): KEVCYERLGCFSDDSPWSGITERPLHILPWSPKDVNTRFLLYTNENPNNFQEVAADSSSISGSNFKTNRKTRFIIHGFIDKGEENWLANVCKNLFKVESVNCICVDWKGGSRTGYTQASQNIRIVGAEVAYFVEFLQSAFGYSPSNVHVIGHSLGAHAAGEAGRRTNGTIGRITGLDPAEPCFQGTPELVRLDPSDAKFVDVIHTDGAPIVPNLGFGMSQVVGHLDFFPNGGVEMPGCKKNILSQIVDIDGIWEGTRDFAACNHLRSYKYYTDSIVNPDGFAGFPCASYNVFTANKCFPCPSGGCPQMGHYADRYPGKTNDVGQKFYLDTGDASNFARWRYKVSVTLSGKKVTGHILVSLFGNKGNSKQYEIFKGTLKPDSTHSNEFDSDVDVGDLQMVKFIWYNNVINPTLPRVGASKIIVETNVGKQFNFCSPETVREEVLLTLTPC

lipase = assay: Mouse model assay (Isler et al.); format: in vivo; details: mouse model as described by Isler et al., British Journal of Nutrition, 1995

Row | SMILES | IC50 [1] [nM] | IC50 (human pancreatic lipase) [nM] | lipase inhibition in mouse model (lipase)
1 | Cc1ccc2nc(Nc3ccc(Oc4ccccc4)cc3)oc(=O)c2c1 [Compound 15, 6-Methyl-2-(4-phenoxyphenylamino)-4H-3,1-benzoxazin-4-one] | ≤ 2000 | ≤ 1000 | –
2 | O=c1oc(Nc2ccc(Cl)cc2)nc2ccccc12 [Compound 9, 2-(4-Chlorophenylamino)-4H-3,1-benzoxazin-4-one] | – | ≤ 1000 | –
3 | Cc1ccc2c(=O)oc(Nc3cccc(Oc4ccccc4)c3)nc2c1 [Compound 28, 7-Methyl-2-(3-phenoxyphenylamino)-4H-3,1-benzoxazin-4-one] | ≤ 2000 | ≤ 1000 | –
4 | CCNc1nc2ccccc2c(=O)o1 [Compound 16, 2-Ethylamino-4H-3,1-benzoxazin-4-one] | ≤ 2000 | – | –
5 | O=c1oc(Nc2cccc(C(F)(F)F)c2)nc2ccccc12 [Compound 12, 2-(3-Trifluoromethylphenylamino)-4H-3,1-benzoxazin-4-one] | ≤ 2000 | ≤ 1000 | –
6 | Cc1ccc2c(=O)oc(Nc3ccccc3)nc2c1 [Compound 19, 7-Methyl-2-phenylamino-4H-3,1-benzoxazin-4-one] | ≤ 2000 | ≤ 1000 | –
7 | Cc1ccc(Nc2nc3ccccc3c(=O)o2)cc1 [Compound 7, 2-(4-Methylphenylamino)-4H-3,1-benzoxazin-4-one] | – | ≤ 1000 | –
8 | CCCCCCCCCCCCCCCCNc1nc2ccc(C)cc2c(=O)o1 [Compound 25, 2-Hexadecylamino-6-methyl-4H-3,1-benzoxazin-4-one] | – | ≤ 1000 | –
9 | O=c1oc(Nc2ccc(C(F)(F)F)cc2)nc2ccccc12 [Compound 11, 2-(4-Trifluoromethylphenylamino)-4H-3,1-benzoxazin-4-one] | ≤ 2000 | ≤ 1000 | –
10 | CCc1ccc2c(=O)oc(Nc3ccccc3)nc2c1 [Compound 20, 7-Ethyl-2-Phenylamino-4H-3,1-benzoxazin-4-one] | ≤ 2000 | ≤ 1000 | –
11 | Cc1ccc2c(=O)oc(Nc3ccc(Oc4ccccc4)cc3)nc2c1 [Compound 24, 7-Methyl-2-(4-phenoxyphenylamino)-4H-3,1-benzoxazin-4-one] | ≤ 2000 | ≤ 1000 | potent lipase inhibitor
12 | O=c1oc(Nc2ccccc2)nc2cc(F)ccc12 [Compound 17, 7-Fluoro-2-phenylamino-4H-3,1-benzoxazin-4-one] | ≤ 2000 | ≤ 1000 | –
13 | Cc1ccc2nc(Nc3ccccc3)oc(=O)c2c1 [Compound 5, 6-Methyl-2-phenylamino-4H-3,1-benzoxazin-4-one] | ≤ 2000 | ≤ 1000 | –
14 | Cc1ccc2c(=O)oc(Nc3ccc(C(=O)c4ccccc4)cc3)nc2c1 [Compound 29, 2-(4-Benzoylphenylamino)-7-methyl-4H-3,1-benzoxazin-4-one] | ≤ 2000 | ≤ 1000 | –
15 | CCCCCCc1ccc(Nc2nc3ccc(C)cc3c(=O)o2)cc1 [Compound 21, 2-(4-Hexylphenylamino)-6-methyl-4H-3,1-benzoxazin-4-one] | – | ≤ 1000 | –
16 | CCCCc1ccc2c(=O)oc(Nc3ccccc3)nc2c1 [Compound 26, 7-Butyl-2-phenylamino-4H-3,1-benzoxazin-4-one] | ≤ 2000 | ≤ 1000 | –
17 | CCCCCCCCc1ccc2c(=O)oc(Nc3ccccc3)nc2c1 [Compound 23, 7-Octyl-2-phenylamino-4H-3,1-benzoxazin-4-one] | – | ≤ 1000 | –
18 | O=c1oc(Nc2ccccc2)nc2cccc(F)c12 [Compound 18, 5-Fluoro-2-phenylamino-4H-3,1-benzoxazin-4-one] | ≤ 2000 | – | –
19 | CCCCc1ccc(Nc2nc3ccccc3c(=O)o2)cc1 [Compound 2, 2-(4-Butylphenylamino)-4H-3,1-benzoxazin-4-one] | ≤ 2000 | ≤ 1000 | –
20 | CCCCOC(=O)c1ccc(Nc2nc3ccc(C)cc3c(=O)o2)cc1 [Compound 14, 2-(4-Butoxycarbonylphenylamino)-6-methyl-4H-3,1-benzoxazin-4-one] | ≤ 2000 | ≤ 1000 | –
21 | COc1ccc(Nc2nc3ccccc3c(=O)o2)cc1 [Compound 6, 2-(4-Methoxyphenylamino)-4H-3,1-benzoxazin-4-one] | – | ≤ 1000 | –
22 | O=c1oc(Nc2ccccc2)nc2ccc(Cl)cc12 [Compound 3, 6-Chloro-2-phenylamino-4H-3,1-benzoxazin-4-one] | ≤ 2000 | ≤ 1000 | –
23 | O=c1oc(Nc2ccc(Oc3ccccc3)cc2)nc2ccccc12 [Compound 8, 2-(4-Phenoxyphenylamino)-4H-3,1-benzoxazin-4-one] | ≤ 2000 | ≤ 1000 | –
24 | CC(C)c1ccc(Nc2nc3ccccc3c(=O)o2)cc1 [Compound 10, 2-[4(1-Methylethyl)phenylamino]-4H-3,1-benzoxazin-4-one] | – | ≤ 1000 | –
25 | O=c1oc(Nc2ccc(Oc3ccccc3)cc2)nc2cc(C(F)(F)F)ccc12 [Compound 30, 2-(4-Phenoxyphenylamino)-7-trifluoromethyl-4H-3,1-benzoxazin-4-one] | ≤ 2000 | ≤ 1000 | –
26 | O=c1oc(Nc2ccccc2)nc2ccccc12 [Compound 1, 2-Phenylamino-4H-3,1-benzoxazin-4-one] | ≤ 2000 | ≤ 1000 | –
